Taken from: PubChem BioAssay AID1259327 (Drosophila RNAi Screening Center, 2017)

- Purpose: 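Data from controls in screens of zinc and manganese toxicity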
- System: Drosophila S2R+ cells
- Reagent: long dsRNA against Drosophila genes
- Timing: 5 days (water added on day 4, read one day later)
- Conditions: water added as vehicle, no metal, one day before read-out
- Detection: 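Total ATP measured by luciferase light, scaled to plate mean, duplicates averaged, then z-scored across plates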
- Reading the numbers: ATP z-score: higher = more total ATP than typical wells; ATP luminescence: higher = more total ATP
- Rule for the call: 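a hit is any knock-down whose absolute ATP z-score is greater than 1.5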
- Meaning of the calls: active = hit: ATP up or down; inactive = no clear ATP change
The whole screen tested about 3,100 reagents; below is a random part of them. Over the whole deposit, 378 (12%) were called active. 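Hits include both directions; z-score sign shows ATP rise or fall; raw luminescence values are not plate-normalised.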 A plus sign joins genes that one reagent is predicted to hit. No sequences are given here. The record does not give: the amount of reagent.

Hip14 [DRSC10570] → ATP z-score, duplicate mean: 0.137; ATP luminescence, replicate 1 (RLU): 7.27e5; ATP luminescence, replicate 2 (RLU): 7.65e5; Call: inactive
bib + lncRNA:CR13130 [DRSC24888] → ATP z-score, duplicate mean: 0.0563; ATP luminescence, replicate 1 (RLU): 8.84e5; ATP luminescence, replicate 2 (RLU): 8.30e5; Call: inactive
ppk19 [DRSC15321] → ATP z-score, duplicate mean: -1.52; ATP luminescence, replicate 1 (RLU): 5.21e5; ATP luminescence, replicate 2 (RLU): 9.92e5; Call: active
ppk19 [DRSC39774] → ATP z-score, duplicate mean: -1.08; ATP luminescence, replicate 1 (RLU): 4.10e5; ATP luminescence, replicate 2 (RLU): 3.97e5; Call: inactive
Vmat + CG13330 [DRSC06365] → ATP z-score, duplicate mean: 0.00741; ATP luminescence, replicate 1 (RLU): 7.13e5; ATP luminescence, replicate 2 (RLU): 7.52e5; Call: inactive
Vmat + CG13330 [DRSC28600] → ATP z-score, duplicate mean: 0.541; ATP luminescence, replicate 1 (RLU): 9.03e5; ATP luminescence, replicate 2 (RLU): 8.74e5; Call: inactive
BicC [DRSC02005] → ATP z-score, duplicate mean: 0.5; ATP luminescence, replicate 1 (RLU): 7.41e5; ATP luminescence, replicate 2 (RLU): 8.17e5; Call: inactive
BicC [DRSC29676] → ATP z-score, duplicate mean: 0.631; ATP luminescence, replicate 1 (RLU): 9.88e5; ATP luminescence, replicate 2 (RLU): 8.17e5; Call: inactive
emb [DRSC03528] → ATP z-score, duplicate mean: 3.09; ATP luminescence, replicate 1 (RLU): 6.37e5; ATP luminescence, replicate 2 (RLU): 7.59e5; Call: active
CG14204 [DRSC19559] → ATP z-score, duplicate mean: 0.953; ATP luminescence, replicate 1 (RLU): 8.15e5; ATP luminescence, replicate 2 (RLU): 8.79e5; Call: inactive
CG14204 [DRSC29941] → ATP z-score, duplicate mean: 0.672; ATP luminescence, replicate 1 (RLU): 6.08e5; ATP luminescence, replicate 2 (RLU): 6.66e5; Call: inactive
nan [DRSC10551] → ATP z-score, duplicate mean: 0.022; ATP luminescence, replicate 1 (RLU): 9.33e5; ATP luminescence, replicate 2 (RLU): 8.65e5; Call: inactive
nan [DRSC39690] → ATP z-score, duplicate mean: -0.383; ATP luminescence, replicate 1 (RLU): 4.32e5; ATP luminescence, replicate 2 (RLU): 4.46e5; Call: inactive
Efr [DRSC18322] → ATP z-score, duplicate mean: 0.806; ATP luminescence, replicate 1 (RLU): 7.63e5; ATP luminescence, replicate 2 (RLU): 7.72e5; Call: inactive
Efr [DRSC26945] → ATP z-score, duplicate mean: -0.859; ATP luminescence, replicate 1 (RLU): 8.72e5; ATP luminescence, replicate 2 (RLU): 1.01e6; Call: inactive
unc-5 [DRSC05545] → ATP z-score, duplicate mean: -2.04; ATP luminescence, replicate 1 (RLU): 6.13e5; ATP luminescence, replicate 2 (RLU): 7.67e5; Call: active
unc-5 [DRSC07711] → ATP z-score, duplicate mean: 0.497; ATP luminescence, replicate 1 (RLU): 5.86e5; ATP luminescence, replicate 2 (RLU): 7.43e5; Call: inactive
unc-5 [DRSC07712] → ATP z-score, duplicate mean: 1.78; ATP luminescence, replicate 1 (RLU): 9.19e5; ATP luminescence, replicate 2 (RLU): 9.55e5; Call: active
